Library screening results

From ChEMBL document CHEMBL3988442, “University of Dundee, Small-Polar-MMV Screening Library” (2021).

Mtb growth Cornell: 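Whole-cell assay for inhibitors of Mycobacterium tuberculosis growth, labelled Cornell in the record; the read-out is not stated. The concentration is filed as 10 mM, unlikely as a test dose, so the dose is not known. The record gives no direction; compounds strong in two other growth screens of this library score well above the rest, so higher reads as stronger inhibition. Of about 53,000 compounds tested this way, about 900 (1.7%) reached 50% or more in at least one test.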
Mtb heat-shock: 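Assay on Mycobacterium tuberculosis, filed only as a heat shock assay from Cornell; the read-out is not stated. The concentration is filed as 10 mM, unlikely as a test dose, so the dose is not known. The record gives no direction; compounds that gave an IC50 in retests scored well above the rest, so higher reads as stronger inhibition. About 69,000 compounds were tested under these conditions; 1.4% (about 930) showed 50% or more at least once.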

The filed quantity is “Percent Effect” (%). The record does not define 0% and 100%; most values in the screen are far below 50% and negative numbers occur (in some assays of this library far below -100). The compounds are a random part of those screened.

* CCc1nnc(NC(=O)Cc2c(C)nc(C)[nH]c2=O)s1 : Mtb heat-shock: -28.39%
* Cc1cnn(CCNCc2cc(-c3ccccc3)no2)c1 : Mtb heat-shock: -12.37%
* CSCC[C@H](N)C(=O)NCc1cc2n(n1)CCCN(C(=O)C1CCC1)C2 : Mtb growth Cornell: -26.72%; Mtb heat-shock: 24.44%
* O=C1CC(N(C(=O)Cc2csc(-c3ccccc3)n2)C2CC2)C(=O)N1 (stereo unspecified) : Mtb growth Cornell: 44.9%; Mtb heat-shock: -8.812%
* CC(C)NC(=O)N1CCN(CC2CC2)CC2(CNC(=O)C2)C1.O=C(O)C(F)(F)F (stereo unspecified) : Mtb growth Cornell: 31.56%; Mtb heat-shock: 0.2804%
* CN1CCc2nc(N(C)C)nc(N3CCC(O)CC3)c2C1 : Mtb heat-shock: 9.628%
* Cc1cc(CC(=O)NCc2ccnc(OCC(F)(F)F)c2)no1 : Mtb heat-shock: -3.937%
* FC(F)c1nnc2ccc(N3CCC4(CCCCC4)C3)nn12 : Mtb growth Cornell: 52.01%; Mtb heat-shock: 5.859%
* CN(C)CCCn1ccc(-c2cccc(-c3cncnc3)c2)n1 : Mtb growth Cornell: -7.485%; Mtb heat-shock: -7.129%
* CNc1cc(N2CCCC2CNCc2csc(C)n2)ncn1 (stereo unspecified) : Mtb heat-shock: -31.99%
* [H][C@]12CC[C@@]3(N=C(c4ccccc4)NC3=O)[C@@]1([H])CN(S(=O)(=O)C1CC1)C2 : Mtb growth Cornell: -0.5046%; Mtb heat-shock: -48.25%
* COC(=O)CCCC(=O)N1CCCCC1c1ccc(F)cc1 (stereo unspecified) : Mtb growth Cornell: 18%; Mtb heat-shock: -19.33%
* CC(=O)N1CCN(C(=O)c2sccc2Br)CC1 : Mtb growth Cornell: -25.46%; Mtb heat-shock: -19.43%
* N[C@@H]1CCN(Cc2cccc(N3CCOCC3)c2)C[C@H]1O : Mtb growth Cornell: 2.922%; Mtb heat-shock: -5.441%
* Cc1ccnc(CC(C)N(C)c2cc(CN)nc(C)n2)c1 (stereo unspecified) : Mtb growth Cornell: 25.44%; Mtb heat-shock: 21.23%
* CC(C)c1ncncc1C(=O)N1CCN(Cc2ccsc2)CC1 : Mtb growth Cornell: 5.12%; Mtb heat-shock: 3.496%
* Cc1ccc(C2CCCN2S(=O)(=O)N(C)CCc2ccccn2)o1 (stereo unspecified) : Mtb heat-shock: 69.2%
* CNC(=O)CN1CCN(C(=O)Nc2ccc(Cl)cc2F)CC1 : Mtb growth Cornell: -7.252%; Mtb heat-shock: 1.153%
* CCNC(=O)N1CCC2(CC1)CCn1c(C3CC3)cnc12 : Mtb growth Cornell: -43.56%; Mtb heat-shock: -6.719%
* CS(=O)(=O)NCC1CCCN(c2ccc(C(F)(F)F)cn2)C1 (stereo unspecified) : Mtb growth Cornell: 26.18%; Mtb heat-shock: -10.47%
* O=S(=O)(c1ccccc1)N1CCC[C@]2(C[C@@H](OCC3CC3)CO2)C1 : Mtb growth Cornell: -24.84%; Mtb heat-shock: -36.71%
* COc1c(C)cnc(CSc2nnc(NC3CC3)s2)c1C : Mtb growth Cornell: 15.13%; Mtb heat-shock: -36.49%
* CC(C)c1ccc(OCCNC(=O)N2CCS(=O)(=O)CC2)cc1 : Mtb heat-shock: 13.96%
* CC(=O)Nc1cccc(C(=O)Nc2cnc3n2CCCC3)c1 : Mtb growth Cornell: -22.57%; Mtb heat-shock: 4.84%
* O=C(Nc1cc(C(F)(F)F)ccc1Cl)c1ccc(N2CCCC2)nn1 : Mtb growth Cornell: -29.7%; Mtb heat-shock: 5.007%
* COc1c(CNC(c2nccn2C)C(C)C)c(C)nn1C (stereo unspecified) : Mtb heat-shock: 2.612%
* CCS(=O)(=O)N1CCCCC1c1nc(C)no1 (stereo unspecified) : Mtb growth Cornell: -32.27%; Mtb heat-shock: 6.662%
* [H][C@]12CC[C@]([H])(CN(C(=O)c3nnc4n3CCCCC4)C1)N(C)C2=O : Mtb growth Cornell: 2.945%; Mtb heat-shock: -14.8%
* CCCNC(=O)CCNC(=O)c1ccccc1N1CCOCC1 : Mtb growth Cornell: 18.18%; Mtb heat-shock: 13.4%
* CN(C)c1ccc(C(=O)N2CCN(c3cnccn3)CC2)cn1 : Mtb heat-shock: 6.074%
* NC(=O)N1CCCC(C(=O)Nc2cccc(Cl)c2)C1 (stereo unspecified) : Mtb growth Cornell: 1.847%; Mtb heat-shock: -5.385%
* [H][C@@]12C[C@H](c3noc(C)n3)O[C@@]1([H])CCN(C(=O)c1cc(C)c(C)s1)C2 : Mtb growth Cornell: 8.747%; Mtb heat-shock: -17.8%
* CO[C@H]1CN(S(=O)(=O)c2ccc(F)cc2)C[C@@]12CCCO2 : Mtb growth Cornell: -36.76%; Mtb heat-shock: -16.89%
* CC(C)(C)c1cnc(CN2CCC(NC(=O)C3CCOCC3)CC2)o1 : Mtb growth Cornell: 27.55%; Mtb heat-shock: -12.42%
* O=C(CCN1CCCO1)N1CC[C@@H](c2ccc3ccccc3c2)[C@H](O)C1 : Mtb growth Cornell: 5.243%; Mtb heat-shock: -27.94%
* Cc1cc(NC(=O)N(CC2CCOC2)C2CC2)no1 (stereo unspecified) : Mtb heat-shock: -4.705%
* Cc1ccc(CN(CCN(C)C)C(=O)Nc2ccc(C)c(C#N)c2)s1 : Mtb growth Cornell: -9.628%; Mtb heat-shock: -8.788%